# In the supplement of paper PMC12067093, “Discovery and optimisation of a covalent ligand for TRIM25 and its application to targeted protein ubiquitination” (Chemical Science, 2025):
# The chains behind the UniProt entries cited, without tags or fusion partners. Where a name states a change or a piece, a line headed by the entry shows the natural chain unless it says otherwise.
# UniProt Q3KQU3: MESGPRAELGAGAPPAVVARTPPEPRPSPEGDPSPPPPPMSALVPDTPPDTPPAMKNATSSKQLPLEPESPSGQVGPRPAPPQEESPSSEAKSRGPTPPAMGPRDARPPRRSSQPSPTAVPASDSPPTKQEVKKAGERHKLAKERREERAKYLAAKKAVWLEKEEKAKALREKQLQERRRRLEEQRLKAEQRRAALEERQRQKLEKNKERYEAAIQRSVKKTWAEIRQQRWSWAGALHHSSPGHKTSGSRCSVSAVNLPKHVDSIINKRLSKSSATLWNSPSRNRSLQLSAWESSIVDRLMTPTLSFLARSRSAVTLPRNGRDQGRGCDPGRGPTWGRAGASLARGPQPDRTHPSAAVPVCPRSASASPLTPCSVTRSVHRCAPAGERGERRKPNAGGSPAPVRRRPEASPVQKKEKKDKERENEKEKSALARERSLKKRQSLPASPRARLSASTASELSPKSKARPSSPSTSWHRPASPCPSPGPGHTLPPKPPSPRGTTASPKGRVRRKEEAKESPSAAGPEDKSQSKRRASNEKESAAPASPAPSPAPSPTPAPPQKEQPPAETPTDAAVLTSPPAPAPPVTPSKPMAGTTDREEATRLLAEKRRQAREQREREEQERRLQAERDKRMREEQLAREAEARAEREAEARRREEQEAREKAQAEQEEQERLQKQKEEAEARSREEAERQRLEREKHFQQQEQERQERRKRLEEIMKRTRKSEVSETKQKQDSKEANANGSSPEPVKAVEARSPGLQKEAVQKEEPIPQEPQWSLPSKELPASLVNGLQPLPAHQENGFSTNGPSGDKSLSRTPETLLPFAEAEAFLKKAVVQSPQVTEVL
# UniProt Q66K74: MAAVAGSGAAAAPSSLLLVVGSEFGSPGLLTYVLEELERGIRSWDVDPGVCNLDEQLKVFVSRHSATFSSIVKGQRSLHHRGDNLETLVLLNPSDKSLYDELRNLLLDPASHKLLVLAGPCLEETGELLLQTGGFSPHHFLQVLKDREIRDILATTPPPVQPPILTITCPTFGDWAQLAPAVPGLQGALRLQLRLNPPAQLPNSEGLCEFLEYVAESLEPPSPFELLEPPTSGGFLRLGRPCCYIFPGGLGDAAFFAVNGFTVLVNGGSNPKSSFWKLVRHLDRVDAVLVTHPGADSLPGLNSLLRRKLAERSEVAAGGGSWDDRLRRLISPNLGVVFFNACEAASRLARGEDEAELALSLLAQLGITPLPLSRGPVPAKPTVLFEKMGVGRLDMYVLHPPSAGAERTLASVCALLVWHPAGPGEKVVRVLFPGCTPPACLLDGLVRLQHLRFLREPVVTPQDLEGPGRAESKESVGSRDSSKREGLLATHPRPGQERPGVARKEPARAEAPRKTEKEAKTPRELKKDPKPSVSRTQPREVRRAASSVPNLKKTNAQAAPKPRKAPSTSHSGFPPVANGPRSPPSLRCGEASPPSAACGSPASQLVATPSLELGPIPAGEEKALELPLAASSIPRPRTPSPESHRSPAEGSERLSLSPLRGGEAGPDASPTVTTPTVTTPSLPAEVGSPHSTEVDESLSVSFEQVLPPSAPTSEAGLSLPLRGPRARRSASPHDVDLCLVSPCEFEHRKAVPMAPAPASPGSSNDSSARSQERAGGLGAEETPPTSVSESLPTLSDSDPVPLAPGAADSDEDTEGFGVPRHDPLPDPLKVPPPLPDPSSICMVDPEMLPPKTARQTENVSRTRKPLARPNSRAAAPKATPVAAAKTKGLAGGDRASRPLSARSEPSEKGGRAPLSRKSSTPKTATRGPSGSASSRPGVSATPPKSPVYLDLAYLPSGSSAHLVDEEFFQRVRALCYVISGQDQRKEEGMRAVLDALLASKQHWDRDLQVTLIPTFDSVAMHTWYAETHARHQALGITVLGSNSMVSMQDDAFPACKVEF
# UniProt Q9Y6D9: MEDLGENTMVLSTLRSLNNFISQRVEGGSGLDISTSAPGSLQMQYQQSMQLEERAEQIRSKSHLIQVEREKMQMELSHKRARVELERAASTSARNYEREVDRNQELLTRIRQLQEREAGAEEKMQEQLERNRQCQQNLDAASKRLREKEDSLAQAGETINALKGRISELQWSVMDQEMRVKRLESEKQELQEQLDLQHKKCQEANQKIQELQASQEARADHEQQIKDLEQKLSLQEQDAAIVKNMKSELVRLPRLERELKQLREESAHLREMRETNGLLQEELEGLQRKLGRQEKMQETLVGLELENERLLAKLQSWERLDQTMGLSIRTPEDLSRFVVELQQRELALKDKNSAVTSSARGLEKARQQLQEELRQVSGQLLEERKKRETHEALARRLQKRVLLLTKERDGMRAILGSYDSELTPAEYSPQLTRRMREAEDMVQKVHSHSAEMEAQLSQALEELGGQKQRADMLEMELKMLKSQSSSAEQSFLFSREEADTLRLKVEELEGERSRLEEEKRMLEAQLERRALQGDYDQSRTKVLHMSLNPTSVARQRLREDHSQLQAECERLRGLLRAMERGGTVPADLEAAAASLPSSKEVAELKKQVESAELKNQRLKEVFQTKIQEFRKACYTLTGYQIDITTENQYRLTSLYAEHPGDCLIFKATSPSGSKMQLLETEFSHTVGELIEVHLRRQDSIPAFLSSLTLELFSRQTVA
# UniProt P07948: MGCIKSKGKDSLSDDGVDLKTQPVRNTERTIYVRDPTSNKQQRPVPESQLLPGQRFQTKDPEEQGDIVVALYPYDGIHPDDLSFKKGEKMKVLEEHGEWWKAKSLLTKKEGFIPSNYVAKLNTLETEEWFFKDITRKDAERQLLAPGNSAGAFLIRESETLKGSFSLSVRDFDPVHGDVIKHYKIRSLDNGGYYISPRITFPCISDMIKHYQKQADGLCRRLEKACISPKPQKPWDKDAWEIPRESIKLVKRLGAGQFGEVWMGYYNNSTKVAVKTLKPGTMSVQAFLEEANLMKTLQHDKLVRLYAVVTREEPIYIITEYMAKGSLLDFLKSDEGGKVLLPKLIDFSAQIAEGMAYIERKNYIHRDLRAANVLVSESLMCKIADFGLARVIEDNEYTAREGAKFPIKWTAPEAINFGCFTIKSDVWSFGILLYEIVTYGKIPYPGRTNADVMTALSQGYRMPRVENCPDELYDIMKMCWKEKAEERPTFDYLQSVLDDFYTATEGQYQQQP
# UniProt Q96RQ3: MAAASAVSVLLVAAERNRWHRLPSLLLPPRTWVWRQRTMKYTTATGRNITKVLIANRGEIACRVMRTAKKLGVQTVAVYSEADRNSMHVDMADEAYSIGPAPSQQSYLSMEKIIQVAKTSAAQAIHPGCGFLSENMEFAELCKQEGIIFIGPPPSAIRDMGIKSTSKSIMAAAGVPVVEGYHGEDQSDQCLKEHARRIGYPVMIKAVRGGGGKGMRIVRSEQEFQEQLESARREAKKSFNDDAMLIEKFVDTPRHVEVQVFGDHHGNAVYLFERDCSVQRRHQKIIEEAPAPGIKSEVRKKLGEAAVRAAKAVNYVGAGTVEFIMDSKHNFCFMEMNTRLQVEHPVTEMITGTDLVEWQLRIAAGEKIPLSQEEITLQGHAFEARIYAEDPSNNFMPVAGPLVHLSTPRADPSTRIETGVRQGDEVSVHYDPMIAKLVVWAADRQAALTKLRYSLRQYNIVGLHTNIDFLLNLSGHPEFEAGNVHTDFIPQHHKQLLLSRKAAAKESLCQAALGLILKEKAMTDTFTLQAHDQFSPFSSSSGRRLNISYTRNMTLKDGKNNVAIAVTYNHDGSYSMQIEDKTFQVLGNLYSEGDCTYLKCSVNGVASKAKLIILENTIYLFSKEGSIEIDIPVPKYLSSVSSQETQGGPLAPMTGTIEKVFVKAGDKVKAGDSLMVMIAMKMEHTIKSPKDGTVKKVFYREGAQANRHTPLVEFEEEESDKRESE
# UniProt P56270: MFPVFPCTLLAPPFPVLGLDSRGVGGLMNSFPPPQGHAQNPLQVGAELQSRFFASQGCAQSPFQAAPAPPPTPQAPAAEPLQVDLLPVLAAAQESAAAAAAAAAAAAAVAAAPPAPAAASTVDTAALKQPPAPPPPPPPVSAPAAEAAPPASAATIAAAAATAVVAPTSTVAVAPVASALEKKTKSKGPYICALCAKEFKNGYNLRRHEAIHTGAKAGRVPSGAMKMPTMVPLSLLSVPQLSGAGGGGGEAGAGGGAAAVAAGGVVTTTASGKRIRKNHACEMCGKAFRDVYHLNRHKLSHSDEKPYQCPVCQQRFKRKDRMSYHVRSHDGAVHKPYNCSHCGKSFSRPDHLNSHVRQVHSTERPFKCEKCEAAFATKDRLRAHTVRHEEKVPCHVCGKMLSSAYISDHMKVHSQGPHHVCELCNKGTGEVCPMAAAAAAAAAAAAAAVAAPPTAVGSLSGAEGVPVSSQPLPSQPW
# UniProt Q05BQ5, whole entry, looked up: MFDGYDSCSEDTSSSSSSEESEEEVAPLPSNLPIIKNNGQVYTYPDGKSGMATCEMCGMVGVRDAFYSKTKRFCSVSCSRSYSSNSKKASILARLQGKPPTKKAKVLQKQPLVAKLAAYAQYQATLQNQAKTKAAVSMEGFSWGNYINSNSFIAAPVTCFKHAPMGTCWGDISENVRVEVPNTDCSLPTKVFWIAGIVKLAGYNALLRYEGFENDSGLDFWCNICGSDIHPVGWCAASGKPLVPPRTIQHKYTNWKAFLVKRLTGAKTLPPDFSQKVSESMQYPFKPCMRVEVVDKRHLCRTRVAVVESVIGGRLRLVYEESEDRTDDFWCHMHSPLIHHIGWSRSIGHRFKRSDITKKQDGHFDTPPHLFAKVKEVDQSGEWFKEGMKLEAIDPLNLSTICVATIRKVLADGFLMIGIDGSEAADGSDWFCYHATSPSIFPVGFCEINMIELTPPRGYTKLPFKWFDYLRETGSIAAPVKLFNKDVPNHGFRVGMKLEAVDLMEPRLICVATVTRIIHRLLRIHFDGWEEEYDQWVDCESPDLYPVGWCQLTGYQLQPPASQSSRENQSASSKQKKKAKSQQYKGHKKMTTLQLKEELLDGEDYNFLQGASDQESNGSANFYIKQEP
# UniProt P46734: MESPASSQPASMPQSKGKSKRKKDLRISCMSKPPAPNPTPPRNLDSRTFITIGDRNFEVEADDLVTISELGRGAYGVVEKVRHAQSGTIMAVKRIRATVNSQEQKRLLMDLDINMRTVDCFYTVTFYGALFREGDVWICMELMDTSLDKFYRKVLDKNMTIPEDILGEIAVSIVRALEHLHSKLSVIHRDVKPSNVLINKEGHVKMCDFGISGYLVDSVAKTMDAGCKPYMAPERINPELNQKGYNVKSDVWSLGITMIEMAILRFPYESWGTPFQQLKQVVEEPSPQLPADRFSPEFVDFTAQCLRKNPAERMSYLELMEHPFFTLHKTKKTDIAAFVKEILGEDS
# UniProt P56192: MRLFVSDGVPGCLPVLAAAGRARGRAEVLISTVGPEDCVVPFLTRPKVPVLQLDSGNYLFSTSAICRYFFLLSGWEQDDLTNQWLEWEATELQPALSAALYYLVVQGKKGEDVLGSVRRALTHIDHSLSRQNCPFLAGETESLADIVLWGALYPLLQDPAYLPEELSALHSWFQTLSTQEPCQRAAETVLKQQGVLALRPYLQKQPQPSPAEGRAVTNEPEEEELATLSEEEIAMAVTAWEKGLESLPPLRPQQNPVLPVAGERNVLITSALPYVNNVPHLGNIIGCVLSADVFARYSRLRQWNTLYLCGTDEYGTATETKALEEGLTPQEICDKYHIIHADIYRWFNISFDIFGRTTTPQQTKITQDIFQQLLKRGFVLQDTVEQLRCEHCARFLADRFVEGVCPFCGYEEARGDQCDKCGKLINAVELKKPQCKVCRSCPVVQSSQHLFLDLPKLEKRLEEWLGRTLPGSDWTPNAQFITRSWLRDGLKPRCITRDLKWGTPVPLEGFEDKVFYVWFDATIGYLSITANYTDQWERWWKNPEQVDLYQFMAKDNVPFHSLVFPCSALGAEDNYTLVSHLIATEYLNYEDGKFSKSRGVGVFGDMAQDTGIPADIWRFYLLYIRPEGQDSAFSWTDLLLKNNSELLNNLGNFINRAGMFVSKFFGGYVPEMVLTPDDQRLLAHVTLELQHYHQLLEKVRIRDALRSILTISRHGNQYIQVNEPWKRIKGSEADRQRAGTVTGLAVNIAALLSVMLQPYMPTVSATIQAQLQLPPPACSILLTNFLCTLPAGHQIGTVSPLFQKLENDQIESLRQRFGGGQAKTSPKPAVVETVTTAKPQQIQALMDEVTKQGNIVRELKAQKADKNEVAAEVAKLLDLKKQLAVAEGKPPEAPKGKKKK
# The list shows a part of the results.
# Compound: Cc1cc(ccc1-c1ccccc1)C(=O)N1CCCN(CC1)C(=O)CCl [compound 10]
# Assay: probe-labelled cysteine peptide fold change vs DMSO (competition) (log2 fold change); higher = less target engagement (more negative = stronger competition)
# Conditions: THP-1, incubation time: 4 h
# 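Also: competitive profiling in live THP-1 cells: cysteine peptides tagged with an iodoacetamide desthiobiotin (IA-DTB) probe, intensity after compound treatment relative to DMSO-treated cells.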
Target,probe-labelled cysteine peptide fold change (10 µM),probe-labelled cysteine peptide fold change (50 µM)
MAP3K1_Q13233_1012_LQGFIPCR (UniProt Q13233),-0.192,-0.389
LY75_O60449_1422_VTWYEALNMCSQSGGHLASVHNQNGQLFLEDIVKR (UniProt O60449),0.482,0.37
LY75_O60449_83_CLGLDITK (UniProt O60449),-0.168,-0.105
MAP4K2_Q12851_473_VHMGACFSK (UniProt Q12851),-0.00961,-0.0832
MBD1_Q9UIS9_28_SGATCGR (UniProt Q9UIS9),-0.113,-0.191
LYST_Q99698_808_DLFLSCNGVSQIIELNCLNGIR (UniProt Q99698),-0.303,-0.285
MAP3K20_Q9NYL2_231_LTIPSSCPR (UniProt Q9NYL2),-0.136,-0.0263
MAEA_Q7L5Y9_61_TLSGCPAVDSVVSLLDGVVEK (UniProt Q7L5Y9),0.184,-0.0988
MAP7D1_Q3KQU3_251_CSVSAVNLPK (UniProt Q3KQU3),0.00205,-0.316
MAP1S_Q66K74_435_VLFPGCTPPACLLDGLVR (UniProt Q66K74),0.137,0.173
MAPK13_O15264_162_DLKPGNLAVNEDCELK (UniProt O15264),-0.0959,-0.21
MACF1_Q9UPN3_443_IQNGALNCEEK (UniProt Q9UPN3),0.131,0.511
MACF1_Q9UPN3_666_LETQYCK (UniProt Q9UPN3),-0.142,0.0191
MACF1_Q9UPN3_3109_EIACGAQSEPFPCMTPRPEGLHYQESDGK (UniProt Q9UPN3),-0.348,-0.619
MAGT1_Q9H0U3_87_QCVVCK (UniProt Q9H0U3),-0.137,0.464
MAD1L1_Q9Y6D9_134_QCQQNLDAASK (UniProt Q9Y6D9),-0.306,-0.116
LYN_P07948_219_QADGLCR (UniProt P07948),-0.0469,-0.0264
MAPK9_P45984_222_GCVIFQGTDHIDQWNK (UniProt P45984),-0.0703,0.0724
LYST_Q99698_1646+1651_TFCMIGHCLSSQEEFLQLAGK (UniProt Q99698),-0.181,-0.218
MAN1A2_O60476_462_MGHLACFAGGMFALGADGSR (UniProt O60476),-0.299,-0.149
MAN2C1_Q9NTJ4_29_FVSPLYFTDCNLR (UniProt Q9NTJ4),0.0757,0.133

Target,probe-labelled cysteine peptide fold change (10 µM),probe-labelled cysteine peptide fold change (50 µM)
MCCC1_Q96RQ3_600_CSVNGVASK (UniProt Q96RQ3),0.185,0.0796
MBD2_Q9UBB5_111_GRPPSGGSGLGGDGGGCGGGGSGGGGAPR (UniProt Q9UBB5),-0.142,-1.1
LYAR_Q9NX58_6_VFFTCNACGESVK (UniProt Q9NX58),0.0884,-0.00365
LY75_O60449_782_GWHFYDDREFIYLRPFACDTK (UniProt O60449),-0.0988,0.0485
MAZ_P56270_371_CEAAFATK (UniProt P56270),0.218,0.119
LYST_Q99698_2127_LTGSLGCSIDR (UniProt Q99698),-0.208,-0.142
LYAR_Q9NX58_6_VFFTCNACGESVKK (UniProt Q9NX58),0.047,-0.401
LYST_Q99698_20_LCNAVVQR (UniProt Q99698),0.042,0.0748
MAST3_O60307_285_LLECLEFDPEEFYHLLEAAEGHAR (UniProt O60307),-0.393,-0.385
MAPK3_P27361_144_SQQLSNDHICYFLYQILR (UniProt P27361),-0.267,0.58
LYN_P07948_226_ACISPK (UniProt P07948),0.00857,0.101
MBTD1_Q05BQ5_185_VEVPNTDCSLPTK (UniProt Q05BQ5),-0.0433,0.0195
MCCC1_Q96RQ3_332_HNFCFMEMNTR (UniProt Q96RQ3),-0.0362,0.0203
MBLAC2_Q68D91_212_ISDYVGTCER (UniProt Q68D91),0.0556,0.0236
M6PR_P20645_145_AVVMISCNR (UniProt P20645),-0.268,-0.155
MAF1_Q9H063_34_IESYSCK (UniProt Q9H063),0.123,-0.0472
MAPK8_P45983_41_YQNLKPIGSGAQGIVCAAYDAILER (UniProt P45983),0.0285,0.101
MAP2K3_P46734_227_TMDAGCKPYMAPER (UniProt P46734),-0.121,-0.398
MASP1_P48740-2_630_LPVVPHAECK (UniProt P48740),-0.427,-0.337
LY75_O60449_477_VQSCEEK (UniProt O60449),-0.205,-0.0554
MAP2K1_Q02750_277_ELELMFGCQVEGDAAETPPRPR (UniProt Q02750),-0.297,0.0194

Target,probe-labelled cysteine peptide fold change (10 µM),probe-labelled cysteine peptide fold change (50 µM)
MAP4K4_O95819_269_FFSFIEGCLVK (UniProt O95819),-0.0412,0.582
MAP1S_Q66K74_743_SASPHDVDLCLVSPCEFEHR (UniProt Q66K74),-0.443,-0.145
MACF1_Q9UPN3_2895_SLGQVSLTHPYSECDFK (UniProt Q9UPN3),-0.168,-0.157
MACF1_Q9UPN3_986_SSAPGECHQIMK (UniProt Q9UPN3),0.115,-0.0463
MAPK14_Q16539_39_YQNLSPVGSGAYGSVCAAFDTK (UniProt Q16539),0.03,0.234
LYN_P07948_381_AANVLVSESLMCK (UniProt P07948),0.104,0.0654
LYAR_Q9NX58_33_NCECLSCIDCGK (UniProt Q9NX58),0.0926,0.167
LUC7L3_O95232_58_SDLGPCEK (UniProt O95232),-0.112,-0.363
MARS_P56192_405_FVEGVCPFCGYEEAR (UniProt P56192),-0.0372,-0.26
MAP2K3_P46734_305_FSPEFVDFTAQCLR (UniProt P46734),0.0829,0.0603
LYPLA1_O75608_144_LAGVTALSCWLPLR (UniProt O75608),0.21,0.0595
MBTD1_Q05BQ5_288_VSESMQYPFKPCMR (UniProt Q05BQ5),0.00855,0.00392
MAT2A_P31153_56_VACETVAK (UniProt P31153),-0.251,-0.00358
MATR3_P43243_230_CRDDSFFGETSHNYHK (UniProt P43243),0.00308,-0.311
MACF1_Q9UPN3_5049_HQLEIFDALGSQACSNK (UniProt Q9UPN3),0.26,0.168
MARS2_Q96GW9_336+344_ICVHSHWTVCGQK (UniProt Q96GW9),0.163,0.146
MAU2_Q9Y6X3_145_AIQISQQTPYWHCR (UniProt Q9Y6X3),0.0736,-0.302
LYPLA2_O95372_213_TYPGVMHSSCPQEMAAVK (UniProt O95372),0.0019,-0.274
MAP10_Q9P2G4_648_IQSPCVFQQDAVVDR (UniProt Q9P2G4),-0.226,-0.182
MANBA_O00462_769_ESCVVSFYLSADHELLSPTNYHFLSSPK (UniProt O00462),0.153,0.128
MBOAT7_Q96N66_310_NIDCYSTDFCVR (UniProt Q96N66),0.0364,0.0912

Target,probe-labelled cysteine peptide fold change (10 µM),probe-labelled cysteine peptide fold change (50 µM)
LYPLA2_O95372_171_DLAILQCHGELDPMVPVR (UniProt O95372),-0.092,-0.0885
MAPKBP1_O60336_1443_LYHSVAGCK (UniProt O60336),0.146,0.0505
LYAR_Q9NX58_6+9_VFFTCNACGESVKK (UniProt Q9NX58),-0.147,-0.92
MAP7D1_Q3KQU3_373_SASASPLTPCSVTR (UniProt Q3KQU3),-0.336,-0.225
MAD1L1_Q9Y6D9_662_LTSLYAEHPGDCLIFK (UniProt Q9Y6D9),0.0134,0.0859
MAN2C1_Q9NTJ4_871_WMDLSEHGFGLALLNDCK (UniProt Q9NTJ4),0.238,0.569
MAZ_P56270_424_VHSQGPHHVCELCNK (UniProt P56270),0.033,-0.236
LYPLA1_O75608_53_YICPHAPVRPVTLNMNVAMPSWFDIIGLSPDSQEDESGIK (UniProt O75608),-0.0244,-0.102
MARCH3_Q86UD3_89_ICHEGSSQEDLLSPCECTGTLGTIHR (UniProt Q86UD3),-0.0768,-0.221
MARS_P56192_38_AEVLISTVGPEDCVVPFLTRPK (UniProt P56192),-0.0722,0.0548
MAK16_Q9BXY0_17_QFCSFK (UniProt Q9BXY0),-0.115,-0.166
MAPK7_Q13164_359_YHDPDDEPDCAPPFDFAFDREALTR (UniProt Q13164),-0.296,0.0143
MAP2K2_P36507_384_RSEVEEVDFAGWLCK (UniProt P36507),-0.16,-0.341
LYST_Q99698_504_CEYSHFMHHHR (UniProt Q99698),-0.0365,-0.0129
MACF1_Q9UPN3_3368_QLCLEHDEK (UniProt Q9UPN3),0.282,-0.104
MAP3K3_Q99759_430_IVQYYGCLR (UniProt Q99759),-0.109,0.013
MAP2K2_P36507_384_SEVEEVDFAGWLCK (UniProt P36507),0.0856,0.0969
MACF1_Q9UPN3_4206_FEQLCLQQQEK (UniProt Q9UPN3),0.151,0.0747
